PMC11887511 (Crystal Growth & Design, 2025)

Legend:
[1] = Facet specific crystal growth rates of α-gly seed crystals in a flow cell; settings: 1 mol % additive, water, 15 °C
[2] = Metal incorporated at α-gly crystal facets, XPS; settings: α-gly crystals grown with 1 mol % metal salt, aqueous, S 1.3-1.45; trends rather than absolute values
[3] = Metal incorporated into bulk α-gly crystals, elemental analysis (ICP-OES); settings: α-gly crystals grown with 1 mol % metal salt, aqueous, S 1.3-1.45; a = below detection limit

SMILES	effect on growth of the {011} faces of α-gly [1]	effect on growth rates of the {020} faces of α-gly [1]	mol % of metal in {011} [2]	mol % of metal in bulk [3]
O=C(O)CNCC(=O)O [IDA, iminodiacetic acid]	very effective crystal growth inhibitor	very effective crystal growth inhibitor	–	–
[Cl][Cu][Cl] [Cu(II), copper(II) chloride]	–	–	5%	0.14%
[Cl-].[Cl-].[Zn+2] [Zn(II), zinc(II) chloride]	–	–	2%	<0.1 ^a %
O=C(O)CC(=O)O [MA, malonic acid]	noticeable inhibition effect	minor impact	–	–
O.O.O.O.[Cl][Fe][Cl] [Fe(II), iron(II) chloride tetrahydrate]	–	–	12%	0.27%
O=C(O)c1ccccc1O [SA, salicylic acid]	noticeable inhibition effect	minor impact	–	–

Marks after values point to notes of the source that are not given here.
